# Values quoted from earlier work in patent publication US20010018095A1, “Method of forming a membrant, especially a latex or polymer membrane, including multiple discrete layers” (priority 1987, published 2001).
# At least one read-out could not be matched to a standard name with certainty.
# Conditions: candidate solvents for polyurethane and biocide; cited from earlier work
compound,measurement,value
Cc1cccc(O)c1 [m-Cresol],Solubiltiy Parameter,10.2 (cals/cc)^1/2
